Publication doi:10.1101/2020.05.01.070433
Results are given in words; binding and its absence hold for the method and conditions named. Binding seen in cells or lysates may run through a third protein. A yes stands for co-enrichment or nearness to the bait. Other partners may have been found.

Amino acid sequences for entries named in this document (tags omitted).
UniProt Q965S0: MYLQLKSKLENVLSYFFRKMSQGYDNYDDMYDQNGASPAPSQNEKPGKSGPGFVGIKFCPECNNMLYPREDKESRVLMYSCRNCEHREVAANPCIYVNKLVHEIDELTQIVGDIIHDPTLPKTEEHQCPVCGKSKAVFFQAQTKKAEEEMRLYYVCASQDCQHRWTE
UniProt P34703: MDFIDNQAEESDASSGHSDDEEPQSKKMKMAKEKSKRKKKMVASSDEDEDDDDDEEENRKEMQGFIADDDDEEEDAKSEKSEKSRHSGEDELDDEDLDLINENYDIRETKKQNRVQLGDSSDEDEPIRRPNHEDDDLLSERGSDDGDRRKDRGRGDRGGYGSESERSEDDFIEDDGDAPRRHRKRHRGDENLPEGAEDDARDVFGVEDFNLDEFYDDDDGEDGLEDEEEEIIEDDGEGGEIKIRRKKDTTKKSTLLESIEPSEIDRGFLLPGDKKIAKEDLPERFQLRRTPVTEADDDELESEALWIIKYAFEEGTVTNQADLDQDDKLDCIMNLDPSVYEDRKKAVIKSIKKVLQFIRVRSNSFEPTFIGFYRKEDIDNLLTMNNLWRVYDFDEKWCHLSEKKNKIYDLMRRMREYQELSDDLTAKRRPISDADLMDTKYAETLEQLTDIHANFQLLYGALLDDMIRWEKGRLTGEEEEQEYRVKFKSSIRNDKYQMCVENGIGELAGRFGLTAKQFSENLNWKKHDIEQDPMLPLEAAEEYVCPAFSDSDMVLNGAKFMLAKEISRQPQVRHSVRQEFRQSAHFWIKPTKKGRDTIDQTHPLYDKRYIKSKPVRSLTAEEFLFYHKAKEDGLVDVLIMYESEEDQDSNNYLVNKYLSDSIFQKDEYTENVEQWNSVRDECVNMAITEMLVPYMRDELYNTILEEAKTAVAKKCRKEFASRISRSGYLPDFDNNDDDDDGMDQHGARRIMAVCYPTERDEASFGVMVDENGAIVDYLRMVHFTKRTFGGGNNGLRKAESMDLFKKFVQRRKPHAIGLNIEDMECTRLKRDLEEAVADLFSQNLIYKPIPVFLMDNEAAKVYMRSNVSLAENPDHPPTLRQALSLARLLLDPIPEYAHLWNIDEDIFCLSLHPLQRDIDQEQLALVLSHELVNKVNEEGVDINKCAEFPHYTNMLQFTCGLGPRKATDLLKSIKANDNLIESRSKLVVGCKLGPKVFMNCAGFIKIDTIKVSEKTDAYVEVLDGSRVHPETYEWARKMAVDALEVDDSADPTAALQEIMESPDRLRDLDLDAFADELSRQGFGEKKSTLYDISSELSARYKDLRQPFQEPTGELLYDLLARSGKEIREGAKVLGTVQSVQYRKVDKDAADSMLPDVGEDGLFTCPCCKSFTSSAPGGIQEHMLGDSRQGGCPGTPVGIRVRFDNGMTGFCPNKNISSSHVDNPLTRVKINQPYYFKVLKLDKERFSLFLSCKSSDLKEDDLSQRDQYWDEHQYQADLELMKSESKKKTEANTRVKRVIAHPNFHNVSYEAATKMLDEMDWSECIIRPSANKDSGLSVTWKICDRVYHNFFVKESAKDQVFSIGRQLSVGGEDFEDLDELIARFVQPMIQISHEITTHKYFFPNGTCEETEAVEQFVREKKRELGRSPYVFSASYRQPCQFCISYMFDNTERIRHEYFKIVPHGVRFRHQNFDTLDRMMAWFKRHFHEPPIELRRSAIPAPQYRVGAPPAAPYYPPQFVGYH
UniProt P16356: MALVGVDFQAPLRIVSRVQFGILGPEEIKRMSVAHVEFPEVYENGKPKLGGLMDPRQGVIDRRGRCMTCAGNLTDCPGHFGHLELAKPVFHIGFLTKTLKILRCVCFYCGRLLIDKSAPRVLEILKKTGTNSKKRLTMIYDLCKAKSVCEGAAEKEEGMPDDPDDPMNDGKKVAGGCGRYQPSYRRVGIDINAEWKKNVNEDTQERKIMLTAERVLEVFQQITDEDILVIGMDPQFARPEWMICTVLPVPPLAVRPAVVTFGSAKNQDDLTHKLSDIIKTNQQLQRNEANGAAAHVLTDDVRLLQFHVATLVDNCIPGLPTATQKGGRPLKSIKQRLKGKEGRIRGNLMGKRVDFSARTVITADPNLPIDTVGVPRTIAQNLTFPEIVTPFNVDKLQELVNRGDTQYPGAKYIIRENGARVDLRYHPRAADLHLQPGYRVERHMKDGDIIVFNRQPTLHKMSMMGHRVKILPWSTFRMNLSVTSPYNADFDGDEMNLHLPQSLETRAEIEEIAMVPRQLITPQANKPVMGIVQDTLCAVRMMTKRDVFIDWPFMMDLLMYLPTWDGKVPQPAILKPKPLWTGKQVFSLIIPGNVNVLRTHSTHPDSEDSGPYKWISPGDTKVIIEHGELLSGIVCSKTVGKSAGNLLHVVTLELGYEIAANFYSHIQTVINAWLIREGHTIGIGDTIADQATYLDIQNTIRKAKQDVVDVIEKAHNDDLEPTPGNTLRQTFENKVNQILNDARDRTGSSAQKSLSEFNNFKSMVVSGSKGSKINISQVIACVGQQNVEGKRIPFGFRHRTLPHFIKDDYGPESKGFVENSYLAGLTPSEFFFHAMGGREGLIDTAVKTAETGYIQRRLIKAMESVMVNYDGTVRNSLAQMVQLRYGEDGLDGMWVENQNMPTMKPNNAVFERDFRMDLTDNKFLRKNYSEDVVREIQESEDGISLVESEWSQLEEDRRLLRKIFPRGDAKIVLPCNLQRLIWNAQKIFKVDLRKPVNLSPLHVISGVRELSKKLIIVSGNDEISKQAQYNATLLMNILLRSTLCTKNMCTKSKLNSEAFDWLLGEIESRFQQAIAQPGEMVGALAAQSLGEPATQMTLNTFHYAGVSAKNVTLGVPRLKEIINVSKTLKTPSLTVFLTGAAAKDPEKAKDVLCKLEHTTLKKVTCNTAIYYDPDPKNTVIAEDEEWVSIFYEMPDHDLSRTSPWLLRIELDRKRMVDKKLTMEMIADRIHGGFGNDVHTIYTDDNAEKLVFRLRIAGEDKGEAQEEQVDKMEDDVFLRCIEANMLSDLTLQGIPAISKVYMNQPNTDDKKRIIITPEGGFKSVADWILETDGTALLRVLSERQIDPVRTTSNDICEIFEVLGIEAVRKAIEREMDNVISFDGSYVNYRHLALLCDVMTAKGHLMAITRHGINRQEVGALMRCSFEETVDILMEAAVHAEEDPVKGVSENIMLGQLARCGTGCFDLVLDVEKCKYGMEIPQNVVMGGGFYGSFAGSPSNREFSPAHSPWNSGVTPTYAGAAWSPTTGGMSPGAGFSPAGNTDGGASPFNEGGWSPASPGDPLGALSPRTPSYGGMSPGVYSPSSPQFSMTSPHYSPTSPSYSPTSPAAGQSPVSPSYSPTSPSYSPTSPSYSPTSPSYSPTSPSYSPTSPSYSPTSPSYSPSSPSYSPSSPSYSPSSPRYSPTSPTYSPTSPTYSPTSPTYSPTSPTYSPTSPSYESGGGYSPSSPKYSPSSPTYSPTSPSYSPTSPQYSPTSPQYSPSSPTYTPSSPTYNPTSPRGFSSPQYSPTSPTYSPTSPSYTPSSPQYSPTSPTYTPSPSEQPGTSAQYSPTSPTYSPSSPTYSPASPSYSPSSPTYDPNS
UniProt Q9N5K2: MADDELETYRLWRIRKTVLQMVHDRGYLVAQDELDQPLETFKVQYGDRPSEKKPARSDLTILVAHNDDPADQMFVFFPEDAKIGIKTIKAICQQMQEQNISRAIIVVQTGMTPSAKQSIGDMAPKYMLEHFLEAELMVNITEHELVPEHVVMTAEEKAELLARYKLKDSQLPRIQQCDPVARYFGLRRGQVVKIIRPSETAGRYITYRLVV
UniProt Q21338: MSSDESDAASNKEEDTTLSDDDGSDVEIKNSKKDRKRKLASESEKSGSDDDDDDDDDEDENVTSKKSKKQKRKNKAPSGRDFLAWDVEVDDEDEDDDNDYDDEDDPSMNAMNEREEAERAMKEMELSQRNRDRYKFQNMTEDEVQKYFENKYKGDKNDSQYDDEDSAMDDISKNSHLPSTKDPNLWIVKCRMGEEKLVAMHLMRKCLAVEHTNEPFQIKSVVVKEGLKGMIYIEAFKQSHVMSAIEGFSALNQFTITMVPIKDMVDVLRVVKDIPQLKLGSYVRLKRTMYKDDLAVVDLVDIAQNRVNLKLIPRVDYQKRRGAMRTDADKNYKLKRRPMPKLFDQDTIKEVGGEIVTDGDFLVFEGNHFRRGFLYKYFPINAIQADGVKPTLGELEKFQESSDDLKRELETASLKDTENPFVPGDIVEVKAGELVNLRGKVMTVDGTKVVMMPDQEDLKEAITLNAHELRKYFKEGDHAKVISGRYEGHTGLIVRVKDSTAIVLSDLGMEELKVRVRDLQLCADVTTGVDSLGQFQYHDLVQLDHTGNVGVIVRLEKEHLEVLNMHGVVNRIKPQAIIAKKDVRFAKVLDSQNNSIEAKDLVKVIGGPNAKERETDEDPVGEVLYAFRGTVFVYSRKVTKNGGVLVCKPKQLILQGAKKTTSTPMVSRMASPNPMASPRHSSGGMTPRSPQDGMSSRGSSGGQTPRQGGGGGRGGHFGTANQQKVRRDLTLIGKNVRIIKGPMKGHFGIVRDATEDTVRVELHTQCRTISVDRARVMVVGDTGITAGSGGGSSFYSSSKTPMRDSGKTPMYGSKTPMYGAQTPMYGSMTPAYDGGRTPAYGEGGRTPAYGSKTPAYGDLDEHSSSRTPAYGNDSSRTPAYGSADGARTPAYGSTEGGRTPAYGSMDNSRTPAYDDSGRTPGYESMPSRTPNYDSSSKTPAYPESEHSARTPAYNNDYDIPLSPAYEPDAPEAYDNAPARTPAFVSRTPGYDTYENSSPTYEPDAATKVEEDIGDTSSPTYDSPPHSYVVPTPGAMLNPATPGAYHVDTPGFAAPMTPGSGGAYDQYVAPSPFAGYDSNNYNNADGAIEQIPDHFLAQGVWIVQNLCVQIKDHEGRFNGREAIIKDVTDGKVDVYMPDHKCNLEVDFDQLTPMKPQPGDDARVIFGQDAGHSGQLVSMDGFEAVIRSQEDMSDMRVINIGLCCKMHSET

B1: CTR-9 (protein, UniProt Q03560 1-1150)
chain: MDESIDDVQETRTIAIPLKDSHEDEVIEINCSELPDGEEVLQILEAEEAKLSYWIEVALEYYRQDRVDLFMMILESAGSRAGLEYEGVKQDQMRALDILAAYWMTQGYREKAKDKKSDFFSKATVLFNTADKIAMYEWSHLTVRAWFYLFERDKSTNKYELADQQFNYVVKTNPKNVLPLIGKAVIAFNKKDYKTAIYYFRKAIRQCRHTIADLRVGIGHCFAKMGMMDKAKTAFERAMEIEPYNVSAMCGLGIILLNTYDHDSLKHAVSLFGRSYNLQTDHPVALIHLANHFFFKKEIERAWTLAWHAATYNDCDSIKAEAFYQMGRCRHAQGQFDGAYKYYYQARQANNGEHTLAHYGLGQMYIHRNEIEEAIKCFDTVHKRLPNNTDTMKILGSLYAHVQLNDPAQTAEARQKGRDVLGKYLAVENDDYEACIDLAQLLEATDPKRSLELYENAIDLLVTNESIQPQPEMLNNVGALYMSMKQYEKAEHHFKRAKERLEEQLNTDEGSLLLERRSAPEKSHLLTIRYNLALCLEHLCRTVEAEQMYKDIVKECPGYIDGYLRLGCITRDRHQVYESSLWLKQGVQFDQASPIVWTLIGNLHFAKNEWMPAQKKFEFILSKIFNNKIPDPYSLVALGNVWFEQLLNPSRKKEDEKKYIDRALQMYQKALKLQPKNMYAANGIGCVLAYKRNWNDARDVFSQVRESTSEFYDVWLNIAHVCMEREQWMAAVQMYSSAMKKFRKENDSTLQHYLAKAYYRANMLNEAKEALECAMLDQLDNTQLKFNYAIVLKKSAKEVLRGHKMTSEQVTAAIDDLKFADKIFQYISKNDDRQSSHTGMRISRTICAEEAKNCKDLLTQAKHKLAAAQTQDEEERRLMEKQEKEKIALQNKMIEEARAKEEAEKQKLEDMKNLRLSFIEMTKDVLRLPEIVEEKRRGGGGRKRRNDDGDEFVNDSSDAGNYDGEEGGEDGERRERRKKDKAAKKASRKKRERRDSGGPDSNRRDEKKRKRKEERDRKLQEKLSAKQSAKIKSRAFLSSSESSDDDKPKPAADSSDDEVDPRPPVDEFDSPTRTDSDSDRETTTKKKKKKAVVDSDEGSVSGSGSGSDNDDKPIIGGSDDDDDDKPAGGNSRDSDGSDAPKKKVIESDSD

Target: RPB-9::OLLAS (C. elegans) (UniProt Q965S0)
Assay: affinity purification with mass spectrometry

binding, binds:
EMB-5 (from UniProt P34703 1-1521), RPB-1/AMA-1 (from UniProt P16356 1-1856), RPB-5 (from UniProt Q9N5K2 1-211), SPT-5 (from UniProt Q21338 1-1208), B1
